# Data taken from the supplement of paper PMC10849652.
# Sequences of proteins named here, by UniProt entry; tags and fusion partners are left off. A change or cut given only in a name is not applied to a line headed by its entry.
# UniProt Q9NXE8: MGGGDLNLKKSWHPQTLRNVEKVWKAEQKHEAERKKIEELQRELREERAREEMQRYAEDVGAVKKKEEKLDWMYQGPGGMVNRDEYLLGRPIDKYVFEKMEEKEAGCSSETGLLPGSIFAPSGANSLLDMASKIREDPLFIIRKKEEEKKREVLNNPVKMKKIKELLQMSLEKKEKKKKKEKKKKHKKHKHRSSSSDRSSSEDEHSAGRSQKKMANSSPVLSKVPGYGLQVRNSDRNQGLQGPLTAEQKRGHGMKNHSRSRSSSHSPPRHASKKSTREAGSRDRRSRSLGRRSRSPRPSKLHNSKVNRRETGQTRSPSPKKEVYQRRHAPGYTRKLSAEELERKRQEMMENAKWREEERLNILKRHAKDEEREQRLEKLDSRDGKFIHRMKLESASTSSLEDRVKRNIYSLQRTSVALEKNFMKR
# UniProt P99999: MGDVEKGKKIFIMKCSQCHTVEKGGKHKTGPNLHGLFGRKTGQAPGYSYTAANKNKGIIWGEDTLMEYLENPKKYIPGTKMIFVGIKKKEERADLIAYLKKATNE
# UniProt Q7L1T6: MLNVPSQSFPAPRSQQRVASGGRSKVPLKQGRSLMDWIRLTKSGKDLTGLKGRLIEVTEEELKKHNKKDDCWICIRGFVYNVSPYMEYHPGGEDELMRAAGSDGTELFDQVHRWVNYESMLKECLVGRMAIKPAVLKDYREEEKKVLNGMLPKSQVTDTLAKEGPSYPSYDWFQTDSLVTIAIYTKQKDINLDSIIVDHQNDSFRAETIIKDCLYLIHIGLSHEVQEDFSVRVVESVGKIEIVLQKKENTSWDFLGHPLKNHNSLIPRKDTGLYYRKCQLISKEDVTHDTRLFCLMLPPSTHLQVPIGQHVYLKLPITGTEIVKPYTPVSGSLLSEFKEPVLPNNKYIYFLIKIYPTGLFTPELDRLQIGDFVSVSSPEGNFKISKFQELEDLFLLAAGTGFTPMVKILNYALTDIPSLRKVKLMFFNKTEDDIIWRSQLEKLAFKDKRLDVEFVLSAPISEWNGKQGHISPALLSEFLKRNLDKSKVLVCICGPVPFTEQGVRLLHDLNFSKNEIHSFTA
# UniProt Q9H0L4: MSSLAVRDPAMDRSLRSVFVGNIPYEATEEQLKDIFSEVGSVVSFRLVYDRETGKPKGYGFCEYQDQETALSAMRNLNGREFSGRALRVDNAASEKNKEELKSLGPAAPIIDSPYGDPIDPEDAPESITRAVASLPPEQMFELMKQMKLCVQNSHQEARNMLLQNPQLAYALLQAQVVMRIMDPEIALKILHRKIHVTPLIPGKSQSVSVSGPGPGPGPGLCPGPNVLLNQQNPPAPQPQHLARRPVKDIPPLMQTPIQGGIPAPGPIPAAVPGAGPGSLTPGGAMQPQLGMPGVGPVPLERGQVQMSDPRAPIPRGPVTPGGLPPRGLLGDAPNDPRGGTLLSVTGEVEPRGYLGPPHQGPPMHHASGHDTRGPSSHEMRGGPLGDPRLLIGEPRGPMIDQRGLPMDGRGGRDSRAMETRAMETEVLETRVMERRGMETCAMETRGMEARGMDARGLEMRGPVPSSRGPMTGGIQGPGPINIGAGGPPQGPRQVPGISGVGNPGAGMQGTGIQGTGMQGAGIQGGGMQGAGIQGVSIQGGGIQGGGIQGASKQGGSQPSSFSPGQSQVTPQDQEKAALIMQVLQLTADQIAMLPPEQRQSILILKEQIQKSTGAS
# UniProt Q13616, whole entry, looked up: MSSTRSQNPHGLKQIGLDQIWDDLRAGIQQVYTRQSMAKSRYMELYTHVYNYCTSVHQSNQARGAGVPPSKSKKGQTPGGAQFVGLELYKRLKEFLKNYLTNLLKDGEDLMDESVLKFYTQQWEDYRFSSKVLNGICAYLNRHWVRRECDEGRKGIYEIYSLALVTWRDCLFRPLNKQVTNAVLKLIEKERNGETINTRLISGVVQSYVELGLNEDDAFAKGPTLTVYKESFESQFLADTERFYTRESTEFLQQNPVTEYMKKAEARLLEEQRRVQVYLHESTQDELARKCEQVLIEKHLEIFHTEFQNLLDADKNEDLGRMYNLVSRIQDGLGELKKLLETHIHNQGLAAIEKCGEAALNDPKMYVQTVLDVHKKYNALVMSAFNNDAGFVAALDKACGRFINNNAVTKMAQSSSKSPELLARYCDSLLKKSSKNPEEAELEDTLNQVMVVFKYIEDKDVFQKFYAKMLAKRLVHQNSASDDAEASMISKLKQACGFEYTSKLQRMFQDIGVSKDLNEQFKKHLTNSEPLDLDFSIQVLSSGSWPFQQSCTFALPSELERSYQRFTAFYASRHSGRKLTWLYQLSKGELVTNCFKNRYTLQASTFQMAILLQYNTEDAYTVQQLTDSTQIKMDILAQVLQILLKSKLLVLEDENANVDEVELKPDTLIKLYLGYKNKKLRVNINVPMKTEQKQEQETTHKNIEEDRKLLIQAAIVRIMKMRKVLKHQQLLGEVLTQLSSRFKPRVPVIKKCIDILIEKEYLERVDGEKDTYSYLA
# UniProt P04080: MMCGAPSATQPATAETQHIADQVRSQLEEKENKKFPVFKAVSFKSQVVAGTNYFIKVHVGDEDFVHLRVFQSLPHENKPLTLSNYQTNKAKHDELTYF
# UniProt Q13618, whole entry, looked up: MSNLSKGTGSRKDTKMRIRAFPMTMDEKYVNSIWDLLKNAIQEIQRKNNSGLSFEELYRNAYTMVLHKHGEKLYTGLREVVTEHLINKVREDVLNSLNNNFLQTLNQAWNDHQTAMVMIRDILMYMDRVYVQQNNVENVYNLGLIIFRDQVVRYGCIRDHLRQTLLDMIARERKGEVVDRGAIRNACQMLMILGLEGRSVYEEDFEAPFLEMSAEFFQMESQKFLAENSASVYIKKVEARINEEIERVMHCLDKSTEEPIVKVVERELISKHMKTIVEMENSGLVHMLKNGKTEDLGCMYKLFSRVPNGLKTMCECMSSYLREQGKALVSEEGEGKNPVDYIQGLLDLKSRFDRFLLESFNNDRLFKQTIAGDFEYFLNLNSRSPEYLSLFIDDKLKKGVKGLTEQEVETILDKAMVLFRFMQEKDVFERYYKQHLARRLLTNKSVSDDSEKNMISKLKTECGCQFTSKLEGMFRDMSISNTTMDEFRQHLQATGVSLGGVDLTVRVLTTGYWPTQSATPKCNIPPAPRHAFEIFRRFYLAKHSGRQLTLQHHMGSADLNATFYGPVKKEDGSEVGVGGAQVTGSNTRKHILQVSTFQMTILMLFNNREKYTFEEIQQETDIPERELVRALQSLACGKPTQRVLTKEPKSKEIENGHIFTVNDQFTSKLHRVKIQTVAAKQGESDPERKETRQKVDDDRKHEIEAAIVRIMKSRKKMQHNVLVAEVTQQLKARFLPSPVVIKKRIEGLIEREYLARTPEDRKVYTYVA
# UniProt P32929, whole entry, looked up: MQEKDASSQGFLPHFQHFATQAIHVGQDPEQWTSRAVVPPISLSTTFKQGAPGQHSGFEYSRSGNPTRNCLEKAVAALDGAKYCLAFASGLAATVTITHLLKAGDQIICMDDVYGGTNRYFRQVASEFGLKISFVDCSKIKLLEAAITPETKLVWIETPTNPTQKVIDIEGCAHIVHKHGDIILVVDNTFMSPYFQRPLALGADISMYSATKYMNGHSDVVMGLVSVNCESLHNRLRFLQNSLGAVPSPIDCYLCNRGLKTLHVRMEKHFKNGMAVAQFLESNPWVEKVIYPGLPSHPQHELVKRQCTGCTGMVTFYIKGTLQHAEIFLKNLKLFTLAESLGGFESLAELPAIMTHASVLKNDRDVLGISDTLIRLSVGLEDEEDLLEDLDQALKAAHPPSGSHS
# UniProt O00399, whole entry, looked up: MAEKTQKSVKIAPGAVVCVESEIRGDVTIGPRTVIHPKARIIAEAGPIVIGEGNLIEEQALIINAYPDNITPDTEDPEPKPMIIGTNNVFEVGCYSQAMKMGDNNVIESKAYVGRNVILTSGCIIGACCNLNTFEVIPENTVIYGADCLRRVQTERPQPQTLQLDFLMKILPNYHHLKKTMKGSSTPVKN
# UniProt Q9NTM9: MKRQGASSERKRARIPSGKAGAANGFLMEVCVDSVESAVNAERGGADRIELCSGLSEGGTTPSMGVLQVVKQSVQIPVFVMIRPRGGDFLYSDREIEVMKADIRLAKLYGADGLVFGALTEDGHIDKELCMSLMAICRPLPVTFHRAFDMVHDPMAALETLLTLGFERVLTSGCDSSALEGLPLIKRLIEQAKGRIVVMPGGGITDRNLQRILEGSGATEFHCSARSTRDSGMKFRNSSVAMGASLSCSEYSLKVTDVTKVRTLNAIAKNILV
# UniProt Q9NPI6: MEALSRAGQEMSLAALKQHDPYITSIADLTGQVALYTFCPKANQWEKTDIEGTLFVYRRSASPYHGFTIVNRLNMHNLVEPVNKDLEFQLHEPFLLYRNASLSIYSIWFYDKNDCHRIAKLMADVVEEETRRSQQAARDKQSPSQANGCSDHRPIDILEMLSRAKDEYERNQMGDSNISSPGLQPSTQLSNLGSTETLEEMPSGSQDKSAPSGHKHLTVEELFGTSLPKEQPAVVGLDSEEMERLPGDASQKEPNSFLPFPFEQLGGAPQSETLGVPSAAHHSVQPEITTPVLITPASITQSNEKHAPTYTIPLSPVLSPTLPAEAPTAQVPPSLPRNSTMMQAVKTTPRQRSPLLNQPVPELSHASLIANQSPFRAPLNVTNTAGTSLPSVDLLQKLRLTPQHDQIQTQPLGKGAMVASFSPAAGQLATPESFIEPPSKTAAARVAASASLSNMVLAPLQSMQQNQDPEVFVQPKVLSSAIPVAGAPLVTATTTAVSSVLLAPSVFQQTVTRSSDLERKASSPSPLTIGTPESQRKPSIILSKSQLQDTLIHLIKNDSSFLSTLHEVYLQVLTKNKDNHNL
# UniProt Q9Y4B6: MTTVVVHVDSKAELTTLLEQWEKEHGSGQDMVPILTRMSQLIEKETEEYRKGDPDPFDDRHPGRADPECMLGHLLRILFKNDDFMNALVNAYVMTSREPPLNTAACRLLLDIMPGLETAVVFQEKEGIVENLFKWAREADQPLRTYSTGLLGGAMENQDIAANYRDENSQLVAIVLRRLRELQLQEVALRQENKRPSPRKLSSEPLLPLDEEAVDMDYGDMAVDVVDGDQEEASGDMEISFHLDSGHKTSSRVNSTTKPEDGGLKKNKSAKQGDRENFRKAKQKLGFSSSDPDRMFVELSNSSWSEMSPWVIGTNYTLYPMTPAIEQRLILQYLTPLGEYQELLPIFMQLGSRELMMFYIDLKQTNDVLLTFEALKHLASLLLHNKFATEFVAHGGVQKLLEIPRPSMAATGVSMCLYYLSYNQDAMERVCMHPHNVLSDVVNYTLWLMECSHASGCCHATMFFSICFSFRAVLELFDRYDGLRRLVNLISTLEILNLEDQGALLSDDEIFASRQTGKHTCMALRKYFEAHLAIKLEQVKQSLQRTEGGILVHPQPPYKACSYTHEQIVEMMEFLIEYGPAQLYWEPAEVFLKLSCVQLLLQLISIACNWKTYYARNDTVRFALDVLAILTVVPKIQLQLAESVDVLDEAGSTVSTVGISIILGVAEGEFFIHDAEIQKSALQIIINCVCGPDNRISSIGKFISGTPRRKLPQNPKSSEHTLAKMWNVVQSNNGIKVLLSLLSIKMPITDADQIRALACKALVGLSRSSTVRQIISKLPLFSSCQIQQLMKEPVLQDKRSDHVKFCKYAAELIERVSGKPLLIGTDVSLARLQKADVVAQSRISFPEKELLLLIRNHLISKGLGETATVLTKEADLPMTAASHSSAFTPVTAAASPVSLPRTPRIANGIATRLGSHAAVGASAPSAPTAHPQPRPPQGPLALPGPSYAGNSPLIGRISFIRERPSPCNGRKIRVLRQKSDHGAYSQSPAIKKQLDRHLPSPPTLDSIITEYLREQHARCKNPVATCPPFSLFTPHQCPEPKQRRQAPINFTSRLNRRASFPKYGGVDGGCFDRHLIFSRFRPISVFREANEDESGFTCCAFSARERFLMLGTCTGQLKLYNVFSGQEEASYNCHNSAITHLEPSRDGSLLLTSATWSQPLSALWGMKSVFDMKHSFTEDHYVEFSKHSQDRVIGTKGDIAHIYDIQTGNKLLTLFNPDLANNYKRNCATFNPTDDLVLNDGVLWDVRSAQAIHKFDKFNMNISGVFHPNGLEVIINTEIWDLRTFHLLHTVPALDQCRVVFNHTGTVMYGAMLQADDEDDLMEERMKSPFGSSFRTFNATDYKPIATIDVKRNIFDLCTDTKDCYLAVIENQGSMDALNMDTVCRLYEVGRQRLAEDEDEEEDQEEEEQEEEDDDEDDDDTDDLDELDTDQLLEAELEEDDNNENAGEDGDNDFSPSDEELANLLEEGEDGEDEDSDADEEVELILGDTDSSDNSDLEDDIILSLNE
# UniProt Q9UHQ9: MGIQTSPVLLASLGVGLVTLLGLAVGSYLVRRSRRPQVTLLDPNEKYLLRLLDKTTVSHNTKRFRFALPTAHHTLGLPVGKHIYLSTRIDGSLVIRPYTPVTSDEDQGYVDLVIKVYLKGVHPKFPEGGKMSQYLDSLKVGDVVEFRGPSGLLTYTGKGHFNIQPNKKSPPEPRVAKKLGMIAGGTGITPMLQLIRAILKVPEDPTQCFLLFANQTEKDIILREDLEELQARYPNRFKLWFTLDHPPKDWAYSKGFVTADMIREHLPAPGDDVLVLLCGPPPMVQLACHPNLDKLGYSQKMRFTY
# The list shows a part of the results.
# Compound: CC1=C(C2=C(C=C1)C(=O)C3=CC=CC=C3N2CCCN)C
# Assay: log2 fold change, soluble protein after heating vs DMSO (PISA); higher = thermal stabilisation; K562 cells, 10 uM, 30 min; active = over 0.2 and 3.5 SD of the protein, either way, in both replicates (recomputed)
# Outline: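 K562 cells at 2×10^6 cells/mL were given 10 μM compound for 30 min. Aliquots then went through 3 min of heating across 48°C-58°C, were pooled, and were extracted in PBS with 0.5% NP-40 at 4°C, and the supernatant after 21,000xg for 90 min was quantified by TMTpro 16plex LC-MS/MS with channel sums equalised. Thermal stability relative to control samples, from duplicates, is given as log2 fold change.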
row,Target,log2 fold change
1,CTPS2 (UniProt Q9NRF8),inactive: 0.019
2,CWC25 (UniProt Q9NXE8),inactive: 0.172
3,CYFIP2 (UniProt Q96F07),inactive: -0.017
4,CZIB (UniProt Q9NWV4),inactive: -0.062
5,DARS (UniProt P14868),inactive: -0.015
6,CYCS (UniProt P99999),inactive: 0.012
7,DARS2 (UniProt Q6PI48),inactive: 0.016
8,DAP3 (UniProt P51398),inactive: -0.144
9,CTBP1 (UniProt Q13363),inactive: 0.025
10,DCTN2 isoform 2 (UniProt Q13561),inactive: -0.007
11,CSTF1 (UniProt Q05048),inactive: 0.158
12,DCAKD (UniProt Q8WVC6),inactive: 0.101
13,DCK (UniProt P27707),inactive: 0.04
14,CYB5R4 (UniProt Q7L1T6),inactive: 0.029
15,CWF19L1 (UniProt Q69YN2),inactive: 0.138
16,DCAF11 (UniProt Q8TEB1),inactive: -0.05
17,CSTF2T (UniProt Q9H0L4),inactive: 0.16
18,CTU2 (UniProt Q2VPK5),inactive: 0.004
19,CUL2 isoform 2 (UniProt Q13617),inactive: 0.053
20,CTNNA2 (UniProt P26232),inactive: -0.027

row,Target,log2 fold change
1,CYB5R2 (UniProt Q6BCY4),inactive: 0.014
2,DCPS (UniProt Q96C86),inactive: 0.012
3,CTIF isoform 2 (UniProt O43310),inactive: 0.04
4,CUL1 (UniProt Q13616),inactive: 0.011
5,CTCF (UniProt P49711),inactive: 0.584
6,CSTB (UniProt P04080),inactive: -0.022
7,CUL3 (UniProt Q13618),inactive: 0.011
8,CTH (UniProt P32929),inactive: -0.031
9,CUL4B (UniProt K4DI93),inactive: 0.006
10,CYP20A1 (UniProt Q6UW02),inactive: 0.02
11,DCTN6 (UniProt O00399),inactive: 0.023
12,CYHR1 (UniProt E9PJD7),inactive: 0.06
13,CUTC (UniProt Q9NTM9),inactive: 0.051
14,DCP1A (UniProt Q9NPI6),inactive: -0.004
15,CSPP1 (UniProt Q1MSJ5),inactive: 0.035
16,DCAF1 (UniProt Q9Y4B6),inactive: -0.19
17,CT45A10 (UniProt P0DMU9),inactive: -0.025
18,CYB5R1 (UniProt Q9UHQ9),inactive: 0.024
19,DCTN3 (UniProt O75935),inactive: 0.056

# Another view of some results above:
row	Target	log2 fold change
14	CYB5R4 (UniProt Q7L1T6)	inactive: 0.029
15	CWF19L1 (UniProt Q69YN2)	inactive: 0.138
16	DCAF11 (UniProt Q8TEB1)	inactive: -0.05
17	CSTF2T (UniProt Q9H0L4)	inactive: 0.16
18	CTU2 (UniProt Q2VPK5)	inactive: 0.004
19	CUL2 isoform 2 (UniProt Q13617)	inactive: 0.053
20	CTNNA2 (UniProt P26232)	inactive: -0.027
1	CYB5R2 (UniProt Q6BCY4)	inactive: 0.014
2	DCPS (UniProt Q96C86)	inactive: 0.012
3	CTIF isoform 2 (UniProt O43310)	inactive: 0.04
